Assay results taken from patent publication US20260273084A1 (ADC THERAPEUTICS SA, priority 2023, published 2026).

Test: general procedure: peptide synthesis; CTC-resin ([…]); HATU/HOBT/DIEA (SPPS); T3P/DIEA (solution)
Conditions: conjugation step

(S)-2-(18-(2,5-dioxo-2,5-dihydro-1H-pyrrol-1-yl)-4,7,10,13,16-pentaoxo-3,6,9,12,15-pentaazaoctadecanamido)-N—((S)-1-(((1S,9S)-9-ethyl-5-fluoro-9-hydroxy-4-methyl-10,13-dioxo-2,3,9,10,13,15-hexahydro-1H,12H-benzo[de]pyrano[3′,4′:6,7]indolizino[1,2-b]quinolin-1-yl)amino)-1-oxopropan-2-yl)-3-methylbutanamide
conjugation yield: 22%
